Test results published in the supplement of paper PMC8728848.
The other results are listed elsewhere or left out.

What was measured:
Test in all cases: glycan array binding signal (z-score within array); higher = stronger binding
Details in all cases: glycan notation: IUPAC condensed, linker removed
[1] = molecular target: Neu5Ac(a2-6)GlcNAc(b1-4)GlcNAc(b1-4)GlcNAc
In short: (§1)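 Columns mapping to the same glycan were averaged after glycan names were converted to IUPAC-condensed notation. The data come from 3228 arrays in the Consortium for Functional Glycomics database, limited to those with an available protein sequence. Binding is reported as a within-array Z-score averaged across arrays of one protein sequence and across linkers.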

Neu5Ac(a2-8)Neu5Ac = molecular target: Neu5Ac(a2-8)Neu5Ac
In short: as §1

[2] = molecular target: Neu5Ac(a2-8)Neu5Ac(a2-3)Gal(b1-3)GalNAc(b1-4)[Neu5Ac(a2-3)]Gal(b1-4)Glc
In short: as §1

[3] = molecular target: Neu5Ac(a2-8)Neu5Ac(a2-3)Gal(b1-3)GalNAc(b1-4)[Neu5Ac(a2-8)Neu5Ac(a2-3)]Gal(b1-4)Glc
In short: as §1

[4] = molecular target: Neu5Ac(a2-8)Neu5Ac(a2-3)Gal(b1-4)Glc
In short: as §1

[5] = molecular target: Neu5Ac(a2-8)Neu5Ac(a2-3)Gal(b1-4)GlcNAc
In short: as §1

[6] = molecular target: Neu5Ac(a2-8)Neu5Ac(a2-3)[Gal(b1-3)GalNAc(b1-4)]Gal(b1-4)Glc
In short: as §1

[7] = molecular target: Neu5Ac(a2-8)Neu5Ac(a2-3)[GalNAc(b1-4)]Gal(b1-4)Glc
In short: as §1

[8] = molecular target: Neu5Ac(a2-8)Neu5Ac(a2-8)Neu5Ac
In short: as §1

[9] = molecular target: Neu5Ac(a2-8)Neu5Ac(a2-8)Neu5Ac(a2-3)Gal(b1-4)Glc
In short: as §1

[10] = molecular target: Neu5Ac(a2-8)Neu5Ac(a2-8)Neu5Ac(a2-3)[Gal(b1-3)GalNAc(b1-4)]Gal(b1-4)Glc
In short: as §1

[11] = molecular target: Neu5Ac(a2-8)Neu5Ac(a2-8)Neu5Ac(a2-3)[GalNAc(b1-4)]Gal(b1-4)Glc
In short: as §1

[12] = molecular target: Neu5Ac(a2-8)Neu5Ac(a2-8)Neu5Ac(a2-8)Neu5Ac(a2-3)[GalNAc(b1-4)]Gal(b1-4)Glc
In short: as §1

[13] = molecular target: Neu5Ac(a2-8)Neu5Gc(a2-3)Gal(b1-4)GlcNAc
In short: as §1

[14] = molecular target: Neu5Ac(b2-6)Gal(b1-4)GlcNAc
In short: as §1

Neu5Ac(b2-6)GalNAc = molecular target: Neu5Ac(b2-6)GalNAc
In short: as §1

[15] = molecular target: Neu5Ac9Ac(a2-3)Gal(b1-3)GlcNAc
In short: as §1

[16] = molecular target: Neu5Ac9Ac(a2-3)Gal(b1-4)GlcNAc
In short: as §1

[17] = molecular target: Neu5Ac9Ac(a2-6)Gal(b1-4)GlcNAc
In short: as §1

[18] = molecular target: Neu5Gc(a2-3)Gal(b1-3)GlcNAc
In short: as §1

[19] = molecular target: Neu5Gc(a2-3)Gal(b1-3)[Fuc(a1-4)]GlcNAc
In short: as §1

Neu5Gc(a2-3)Gal(b1-4)Glc = molecular target: Neu5Gc(a2-3)Gal(b1-4)Glc
In short: as §1

[20] = molecular target: Neu5Gc(a2-3)Gal(b1-4)GlcNAc
In short: as §1

[21] = molecular target: Neu5Gc(a2-3)Gal(b1-4)GlcNAc(b1-3)Gal(b1-4)GlcNAc(b1-2)Man(a1-3)[Neu5Gc(a2-3)Gal(b1-4)GlcNAc(b1-3)Gal(b1-4)GlcNAc(b1-2)Man(a1-6)]Man(b1-4)GlcNAc(b1-4)GlcNAc
In short: as §1

[22] = molecular target: Neu5Gc(a2-3)Gal(b1-4)[Fuc(a1-3)]GlcNAc
In short: as §1

[23] = molecular target: Neu5Gc(a2-6)Gal(b1-4)GlcNAc
In short: as §1

Neu5Gc(a2-6)GalNAc = molecular target: Neu5Gc(a2-6)GalNAc
In short: as §1

[24] = molecular target: Neu5Gc(a2-8)Neu5Ac(a2-3)Gal(b1-4)GlcNAc
In short: as §1

[25] = molecular target: Neu5Gc(a2-8)Neu5Gc(a2-3)Gal(b1-4)GlcNAc
In short: as §1

[26] = molecular target: Neu5Gc(a2-8)Neu5Gc(a2-3)Gal(b1-4)GlcNAc(b1-3)Gal(b1-4)GlcNAc
In short: as §1

[27] = molecular target: Neu5Gc(a2-8)Neu5Gc(a2-6)Gal(b1-4)GlcNAc
In short: as §1

[28] = molecular target: Neu5Gc(b2-6)Gal(b1-4)GlcNAc
In short: as §1

B1: HA-61200 (Pseudomonas aeruginosa), Q02SP8_PSEAB (protein)
chain: MNKCYALVWNVSQGCWNVVSEGSRRRGKPAGAKAAIASVLALLGATALAPAYALPSGGTVVGGSANGEIHLSGGNSLSVNQKVDKLIANWDSFSVAAGERVIFNQPSSSSIALNRVIGTKASDIQGRIDANGQVFLVNPNGVLFGRGAQVNVGGLVASTLDITDAEFNGNSSRYRFTGPSTNGVLNHGGAITAAEGGSIALLGAQVDNRGTVLAQMGGVGLGAGSDLTLNFDGNKLLDIRVDAGVANALASNGGLLKADGGRVLMAARTANALLNTVVNSQGAIEARSLRGKNGRIVLDG
glycan array binding signal (z-score) [1]: -0.803
glycan array binding signal (z-score) (Neu5Ac(a2-8)Neu5Ac): -0.291
glycan array binding signal (z-score) [2]: -0.398
glycan array binding signal (z-score) [3]: -0.215
glycan array binding signal (z-score) [4]: -0.588
glycan array binding signal (z-score) [5]: -0.089
glycan array binding signal (z-score) [6]: 0.374
glycan array binding signal (z-score) [7]: 0.462
glycan array binding signal (z-score) [8]: -0.598
glycan array binding signal (z-score) [9]: 0.107
glycan array binding signal (z-score) [10]: -0.075
glycan array binding signal (z-score) [11]: 0.378
glycan array binding signal (z-score) [12]: 1.17
glycan array binding signal (z-score) [13]: -0.854
glycan array binding signal (z-score) [14]: 0.6
glycan array binding signal (z-score) (Neu5Ac(b2-6)GalNAc): -1.09
glycan array binding signal (z-score) [15]: -0.912
glycan array binding signal (z-score) [16]: 0.347
glycan array binding signal (z-score) [17]: -0.256
glycan array binding signal (z-score) [18]: -0.838
glycan array binding signal (z-score) [19]: 0.421
glycan array binding signal (z-score) (Neu5Gc(a2-3)Gal(b1-4)Glc): -0.015
glycan array binding signal (z-score) [20]: -0.785
glycan array binding signal (z-score) [21]: 0.033
glycan array binding signal (z-score) [22]: -0.117
glycan array binding signal (z-score) [23]: -0.584
glycan array binding signal (z-score) (Neu5Gc(a2-6)GalNAc): -0.811
glycan array binding signal (z-score) [24]: -0.361
glycan array binding signal (z-score) [25]: -0.346
glycan array binding signal (z-score) [26]: -0.132
glycan array binding signal (z-score) [27]: -0.263
glycan array binding signal (z-score) [28]: 1.25
